# Source: PubChem BioAssay AID540276 (National Center for Advancing Translational Sciences (NCATS), 2011)
# In all, about 300,000 compounds went through this assay and about 5,400 (1.8%) were called active. The shares of active, inactive and inconclusive entries below differ from those in the screen. Calls come from the whole dose curve; tested in HEK293 cells. Potencies of inconclusive entries are doubtful fits and often do not repeat.
# Assay: qHTS for inhibitors of binding or entry into cells for Marburg Virus
# Conditions: Marburg virus pseudotyped entry inhibition, cell reporter; activity change, negative = inhibition: at 37.8 µM (top of the series) unless noted
# % is set by controls: 0 for no effect and ±100 for the full control effect; potency is the fitted concentration of half-maximal effect.
Structure (SMILES),"activity change, negative = inhibition",Potency
CCCCNc1ccc(S(=O)(=O)c2cccc([N+](=O)[O-])c2)cc1[N+](=O)[O-],inactive: 4.36%,
Cc1ccc(NC(=O)CCC(=O)OCc2ccc(Br)cc2)cc1,inactive: -0.411%,
COc1ccc(-c2c(C(=O)O)c(C(=O)O)c3n2CCC3)cc1,,"inconclusive: 35.5 µM [activator, single point]"
CCOC(=O)c1cc(-c2ccc(/C=C3/C(=O)NC(=O)C(C#N)=C3C)o2)ccc1Cl,inactive: 4.9%,
COc1ccc(N(C(=O)c2ccco2)C(C(=O)NC2CCCC2)c2ccccc2)cc1 (stereo unspecified),,"inconclusive: 35.5 µM [inhibitor, single point]"
Cc1cccc(Cc2nnc(CCC(=O)N(C)C3CCOC3)o2)c1 (stereo unspecified),,"inconclusive: 15.8 µM [activator, single point]"
Cc1nn(-c2ccccc2)c(OC(=O)c2ccccc2)c1S(=O)(=O)c1ccccc1,,"inconclusive: 35.5 µM [inhibitor, single point]"
CCOc1ccccc1N1CCN(C(=O)C2c3ccccc3Oc3ccccc32)CC1,,"inconclusive: 7.08 µM [inhibitor, partial curve, poor fit]"
CC1=Nc2cc(C(=O)O)ccc2Sc2c(C)ccc(C)c21,,"inconclusive: 35.5 µM [inhibitor, single point]"
CC(C)(C)OC(=O)N1CCC[C@H]1c1nnc(SCc2ccccc2)o1,inactive: -5.51% [at 14.2 µM],
COc1ccc(NCc2nn(CC(=O)c3ccc(Br)cc3)c3[n+]2CCCCC3)cc1,inactive: -3.2%,
CC1(C)Cc2ccccc2C(CSc2ccccc2C(=O)O)=N1,inactive: -25.9% [at 46.1 µM],
NNC(=O)c1cccc(O)c1,,"inconclusive: 0.794 µM [activator, full curve, poor fit]"
CCC(C(=O)NCc1ccncc1)c1ccccc1 (stereo unspecified),,"inconclusive: 1.16 µM [activator, partial curve, poor fit]"
CCOC(=O)C(CC)(CCC(=O)O)c1csc(Nc2ccc(C)cc2)n1 (stereo unspecified),inactive: 3.48% [at 46.1 µM],
CC(C)(C)NC(=O)c1ccc(Sc2ccccc2)c([N+](=O)[O-])c1,inactive: -19.6%,
CCC(CC)C(=O)NCc1ccc(OC)cc1,,"inconclusive: 0.891 µM [inhibitor, full curve, poor fit]"
CC(=O)NC(=S)Nc1ccc(-c2nc3ccc(C)cc3s2)cc1,inactive: 9.07%,
CCC(=NNC(=O)c1ccc2c(c1)nc(C)n2CC)c1cc(F)ccc1O,,"inconclusive: 20 µM [inhibitor, single point]"
CCOC(=O)/C(C(C)=O)=C1/OC(=O)c2ccccc21,,"inconclusive: 2.59 µM [inhibitor, single point]"
CC(NC(=O)CN(c1ccc(Cl)cc1)S(C)(=O)=O)c1ccccc1 (stereo unspecified),,"inconclusive: 1.26 µM [inhibitor, single point]"

# A different layout for six compounds above.
Structure (SMILES)	activity change, negative = inhibition	Potency
CCOc1ccccc1N1CCN(C(=O)C2c3ccccc3Oc3ccccc32)CC1		inconclusive: 7.08 µM [inhibitor, partial curve, poor fit]
CC1=Nc2cc(C(=O)O)ccc2Sc2c(C)ccc(C)c21		inconclusive: 35.5 µM [inhibitor, single point]
CC(C)(C)OC(=O)N1CCC[C@H]1c1nnc(SCc2ccccc2)o1	inactive: -5.51% [at 14.2 µM]	
COc1ccc(NCc2nn(CC(=O)c3ccc(Br)cc3)c3[n+]2CCCCC3)cc1	inactive: -3.2%	
CC1(C)Cc2ccccc2C(CSc2ccccc2C(=O)O)=N1	inactive: -25.9% [at 46.1 µM]	
NNC(=O)c1cccc(O)c1		inconclusive: 0.794 µM [activator, full curve, poor fit]
